In PubChem BioAssay AID540276 (National Center for Advancing Translational Sciences (NCATS), 2011):
Among all 300,000 compounds or so, about 5,400 (1.8%) were called active. The inconclusive results got no clear call from the source; some entries with a clear call stand among them for comparison. Calls come from the whole dose curve; tested in HEK293 cells. Potencies beside an inconclusive call are fits to weak or partial responses and may not hold up.

test: qHTS for inhibitors of binding or entry into cells for Marburg Virus; settings: Marburg virus pseudotyped entry inhibition, cell reporter; activity change, negative = inhibition: at 37.8 µM (top of the series) unless noted
% is set by controls: 0 for no effect and ±100 for the full control effect; potency is the fitted concentration of half-maximal effect.

SMILES	activity change, negative = inhibition	Potency
COC(=O)c1ccc(NC(=S)NC(=O)C2CCC2)cc1	inactive: 19.3% [at 46.1 µM]	–
CC(=O)N1N=C(c2ccc(Br)cc2)CC1c1cn(C)c2ccccc12 (stereo not given)	–	inconclusive: 29.1 µM [inhibitor, single point]
COc1ccc(S(=O)(=O)N2CCN(C/C=C/c3ccccc3)CC2)cc1F	–	inconclusive: 12.6 µM [inhibitor, partial curve, poor fit]
CCOc1ccc2c(c1)C(c1ccc(C)cc1)=NNC(c1ccc(C)cc1)=N2	–	inconclusive: 3.55 µM [inhibitor, full curve, poor fit]
CCN(C(=O)CSc1n[nH]c(-c2ccc(OC)cc2)n1)c1c(N)n(Cc2ccccc2)c(=O)[nH]c1=O	–	inconclusive: 28.2 µM [inhibitor, single point]
CCOC(=O)N1CCC(NC(=O)c2ccc3c(c2)N(Cc2ccc(C)cc2)CCS3)CC1	inactive: 9.98%	–
O=C(Cc1ccccc1F)Nc1nc(-c2ccc(F)c(F)c2)cs1	–	inconclusive: 35.5 µM [inhibitor, partial curve, poor fit]
Cc1cc(C(=O)COC(=O)c2cc(Cl)ccc2N)c(C)n1Cc1ccco1	–	inconclusive: 22.4 µM [inhibitor, single point]
CC(NC(=O)Nc1ccc(Cl)cc1)c1ccc2c(c1)OCO2 (stereo not given)	–	inconclusive: 6.31 µM [inhibitor, full curve, poor fit]
Cc1cccc(NC(=S)N(Cc2ccco2)C(C)c2cccs2)c1 (stereo not given)	–	inconclusive: 10 µM [inhibitor, single point]
CN(NC1OC(=O)c2ccccc21)c1ccccc1[N+](=O)[O-] (stereo not given)	inactive: 11.6% [at 46.1 µM]	–
Nc1ccc(N=Nc2ccccc2)cc1	–	inconclusive: 3.55 µM [activator, partial curve, poor fit]
Cc1cc(NC(=O)CCC(=O)N(CC(=O)NC2CCCC2)c2ccc(Cl)c(Cl)c2)no1	–	inconclusive: 11.2 µM [inhibitor, partial curve, poor fit]
O=C(N/N=C/c1ccc(Br)s1)c1ccncc1	–	inconclusive: 35.5 µM [inhibitor, single point]
NC(=O)c1ccccc1NCC(=O)c1ccc(F)cc1	inactive: 1.55% [at 46.1 µM]	–
C=C(C)CNC(=S)N=Nc1c(O)[nH]c2ccc([N+](=O)[O-])cc12	inactive: -15.8% [at 46.1 µM]	–
O=C(NCC(c1cccnc1)N1CCN(c2ccccc2F)CC1)Oc1ccccc1 (stereo not given)	inactive: -16%	–
C=CCn1c(SCC(=O)NCCc2ccccc2)nnc1C1CC1	inactive: 5.6%	–
O=C(OCC1CC(c2ccccc2)=NO1)c1ccc(Br)cc1 (stereo not given)	inactive: 15%	–
CCc1c(C(=O)NNC(=S)NCCc2ccccc2)csc1C	inactive: 0.222%	–
CC(C)c1ccc(-c2nnc(SCC(=O)NC3CC3)n2C)cc1	inactive: 23.1% [at 46.1 µM]	–
COc1ccc(C)cc1Nc1nc(N)c2ccccc2n1	–	inconclusive: 20 µM [inhibitor, partial curve, poor fit]
COc1ccc(-c2cc3nc4n(c(=O)c3s2)CCCCC4)cc1	–	inconclusive: 39.8 µM [activator, partial curve, poor fit]
CC1CCN(C(=O)CCNC(=O)c2ccccc2)CC1	–	inconclusive: 35.5 µM [activator, single point]

SMILES	activity change, negative = inhibition	Potency
O=C(NC(=S)NCCCN1CCOCC1)c1cccc2ccccc12	inactive: 5.92% [at 46.1 µM]	–
CCN(CC)c1cc(C)c2cc(NC(=O)c3cccc(F)c3)ccc2n1	–	inconclusive: 35.5 µM [activator, single point]
CC(=O)OCC(=O)Nc1c(C)cc(C)cc1C	inactive: 6.64%	–
CCOC(=O)Cc1csc(NS(=O)(=O)c2cc(Cl)ccc2Cl)n1	–	inconclusive: 5.62 µM [inhibitor, single point]
CCOC(=O)N1CCc2[nH]c3ccc(C)cc3c2C1	–	inconclusive: 15.8 µM [inhibitor, single point]
O=C(CCCOc1ccccc1)N1CCN(C(=O)c2ccco2)CC1	–	inconclusive: 25.9 µM [activator, partial curve, poor fit]
O=C(O)c1ccc(/C=N/Nc2nnnn2-c2ccccc2)cc1	–	inconclusive: 0.355 µM [inhibitor, full curve, poor fit]
COc1ccc(OCC(=O)Nc2ccc(NC(=O)c3ccco3)c(C)c2)cc1	–	inconclusive: 2 µM [inhibitor, partial curve, poor fit]
O=C(N/N=C/c1sc(=O)n(-c2ccccc2)c1Cl)c1ccncc1	–	inconclusive: 22.4 µM [inhibitor, single point]
Cc1[nH]c2ccccc2c1C(=O)COc1ccccc1F	inactive: 0.684% [at 46.1 µM]	–
O=c1c2cc(NC(=S)NC3CCN(Cc4ccccc4)CC3)ccc2nc2n1CCCCC2	–	inconclusive: 14.1 µM [inhibitor, single point]
COC(CNC(=O)C1CCCCC1C(=O)O)OC (stereo not given)	–	inconclusive: 1.12 µM [activator, partial curve, poor fit]
COc1cc(/C=N/NC(=O)c2c(-c3ccccc3)noc2C)cc(OC)c1OC	–	inconclusive: 20 µM [inhibitor, single point]
COc1cccc(C(C(=O)NC(C)(C)C)N(Cc2ccc(C)cc2)C(=O)CCC(=O)Nc2cc(C)on2)c1OC (stereo not given)	–	inconclusive: 11.2 µM [inhibitor, single point]
O=C(CCc1nc(-c2cccs2)no1)Nc1ccccc1[N+](=O)[O-]	–	inconclusive: 3.55 µM [inhibitor, single point]
Cc1ccn2c(=O)c(C(=O)NCCc3ccccc3)c(O)nc2c1	inactive: -21.7% [at 46.1 µM]	–
O=C(NCc1ccco1)c1ccc(CN2CCOCC2)cc1	–	inconclusive: 20.6 µM [activator, single point]
CCCn1nc(C(=O)N2CC(=O)Nc3ccccc32)c2ccccc2c1=O	–	inconclusive: 6.51 µM [inhibitor, full curve, poor fit]
Cc1ccc(C(=O)NNC(=O)CSc2nnc(-c3ccccc3)n2Cc2ccccc2)cc1	inactive: -14.4%	–
CCOc1ccccc1CNC(=O)Cn1c(-c2ccccc2)cc(C(C)=O)c1C	inactive: -5.55% [at 46.1 µM]	–
O=C(COc1coc(CN2CCN(c3ccc(F)cc3)CC2)cc1=O)NCC1CCCO1 (stereo not given)	–	inconclusive: 3.98 µM [inhibitor, single point]
CCOc1ccc(NC(=O)N2CCC(C(N)=O)(N3CCCCC3)CC2)cc1	–	inactive
Cc1ccc2nc3c(cc(C(=O)NCCc4ccccc4)c(=N)n3CC3CCCO3)c(=O)n2c1 (stereo not given)	–	inconclusive: 1 µM [inhibitor, full curve, poor fit]
O=C(c1ccc(F)cc1)c1ccc(N2CCCC2)cc1	–	inconclusive: 5.62 µM [activator, single point]

Full records, quoted from the list. Values in the order: activity change, negative = inhibition	Potency
O=C(c1ccc(F)cc1)c1ccc(N2CCCC2)cc1 is listed as –	inconclusive: 5.62 µM [activator, single point]
Cc1ccc(C(=O)NNC(=O)CSc2nnc(-c3ccccc3)n2Cc2ccccc2)cc1 is listed as inactive: -14.4%	–
Cc1ccn2c(=O)c(C(=O)NCCc3ccccc3)c(O)nc2c1 is listed as inactive: -21.7% [at 46.1 µM]	–
CCCn1nc(C(=O)N2CC(=O)Nc3ccccc32)c2ccccc2c1=O is listed as –	inconclusive: 6.51 µM [inhibitor, full curve, poor fit]

The listing continues:

SMILES	activity change, negative = inhibition	Potency
Cc1ccc(N)cc1CN1CCCC1=O	–	inconclusive: 2.82 µM [activator, partial curve]
COc1ccc(OC)c(C(c2nnnn2C(C)(C)C)N2CCc3ccccc3C2)c1 (stereo not given)	–	active: 12.6 µM
CC(C)CS(=O)(=O)c1oc(-c2ccc(F)cc2)nc1S(=O)(=O)c1ccccc1	–	inconclusive: 2.24 µM [inhibitor, partial curve, poor fit]
CC(C)COc1ccc(N)cc1OCC(C)C	inactive: 17% [at 46.1 µM]	–
CCN(CC)c1nc2c3c(nc4c(c3c1C#N)CC(=O)N4c1ccc(Cl)cc1)NC(C)=N2	–	inconclusive: 2.51 µM [activator, partial curve]
O=C(NCCCN1CCN(c2cccc(Cl)c2)CC1)C1CCC(=O)N1Cc1ccccc1Cl (stereo not given)	–	inconclusive: 15.8 µM [inhibitor, single point]
C=Cc1cc(OC)c2c(c1)c(=O)oc1c2cc(OC)c2c(O)ccc(C3OC(C)C(O)C(C)(O)C3O)c21 (stereo not given)	–	inconclusive: 0.316 µM [inhibitor, full curve, poor fit]
O=[N+]([O-])c1cc(C(F)(F)F)ccc1N1CCN(S(=O)(=O)c2ccc3ccccc3c2)CC1	–	active: 11.2 µM
O=C(N/N=C\c1c(O)ccc2ccccc12)c1ccc(Cn2cccn2)o1	–	active: 5.8 µM
O=C(Nc1ccc(Cl)cc1)C1CCCN(c2ncnc3c2nc2n3CCCCC2)C1 (stereo not given)	–	inconclusive: 20 µM [inhibitor, partial curve, poor fit]
O=C1CC(=O)N2N=C(c3ccc([N+](=O)[O-])cc3)SC2=N1	–	inconclusive: 6.31 µM [activator, single point]
COc1ccc(CCn2c(N3CCN(C)CC3)nc3c2c(=O)[nH]c(=O)n3C)cc1	–	inconclusive: 35.5 µM [inhibitor, partial curve, poor fit]
COc1cccc(Cn2c(Oc3ccccc3)nc3c2c(=O)n(C)c(=O)n3C)c1	–	inactive
CCN(CC)C(=O)Cn1cc(C(=O)C(=O)N2CCN(Cc3ccc4c(c3)OCO4)CC2)c2ccccc21	inactive: -8.87%	–
Cc1cc(C)n2nc(SC(C)C(=O)Nc3ccccc3F)nc2n1 (stereo not given)	–	inconclusive: 0.708 µM [activator, single point]
CC(=O)C1=C(O)C(=O)N(c2cccc(C(=O)O)c2)[C@@H]1c1ccccc1F	–	inconclusive: 3.98 µM [activator, full curve, poor fit]
CC(C)OC(=O)c1cccc(-c2ccc(C=O)o2)c1	–	inconclusive: 0.631 µM [activator, full curve, poor fit]
O=C(Nc1ccc(F)cc1)NC1CCCCCCC1	inactive: 1.47% [at 46.1 µM]	–
CCCn1c(CCc2ccccc2)n[nH]c1=S	inactive: -37.2%	–
COC(=O)c1ccc(CNC(=O)/C=C/c2cc([N+](=O)[O-])ccc2OC(F)F)cc1	–	inconclusive: 25.9 µM [inhibitor, single point]
C=CCN1CCN(C(CCC)c2nnnn2Cc2ccco2)CC1 (stereo not given)	–	inconclusive: 6.31 µM [activator, single point]
S=C(Nc1ccc(Br)cc1)NC1CCCCC1	inactive: 0.158%	–

Ordered by SMILES length (low to high): some entries from above
SMILES	activity change, negative = inhibition	Potency
O=C(N/N=C\c1c(O)ccc2ccccc12)c1ccc(Cn2cccn2)o1	–	active: 5.8 µM
COc1ccc(CCn2c(N3CCN(C)CC3)nc3c2c(=O)[nH]c(=O)n3C)cc1	–	inconclusive: 35.5 µM [inhibitor, partial curve, poor fit]
CCOC(=O)N1CCC(NC(=O)c2ccc3c(c2)N(Cc2ccc(C)cc2)CCS3)CC1	inactive: 9.98%	–
